Assay results from the supplement of paper PMC10849652.
The other results are listed elsewhere or left out.

Sequences of proteins named here, by UniProt entry; tags and fusion partners are left off. A change or cut given only in a name is not applied to a line headed by its entry.
UniProt O14662: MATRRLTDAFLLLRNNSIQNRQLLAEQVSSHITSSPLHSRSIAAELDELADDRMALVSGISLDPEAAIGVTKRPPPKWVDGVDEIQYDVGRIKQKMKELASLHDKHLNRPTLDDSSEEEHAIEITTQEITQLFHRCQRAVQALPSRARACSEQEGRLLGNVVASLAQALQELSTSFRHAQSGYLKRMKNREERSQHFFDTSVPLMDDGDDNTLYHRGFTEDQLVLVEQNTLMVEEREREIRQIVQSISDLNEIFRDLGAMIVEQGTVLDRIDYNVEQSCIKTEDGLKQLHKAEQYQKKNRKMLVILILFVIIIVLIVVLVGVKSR
UniProt Q86Y82: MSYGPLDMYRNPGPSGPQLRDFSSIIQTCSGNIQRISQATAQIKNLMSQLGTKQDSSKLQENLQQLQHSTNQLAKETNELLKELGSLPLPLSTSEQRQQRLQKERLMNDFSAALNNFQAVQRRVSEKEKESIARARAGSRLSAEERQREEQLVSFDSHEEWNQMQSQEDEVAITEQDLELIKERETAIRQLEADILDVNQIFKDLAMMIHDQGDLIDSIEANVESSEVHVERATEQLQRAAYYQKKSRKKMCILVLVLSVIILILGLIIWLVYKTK
UniProt Q9Y2H1: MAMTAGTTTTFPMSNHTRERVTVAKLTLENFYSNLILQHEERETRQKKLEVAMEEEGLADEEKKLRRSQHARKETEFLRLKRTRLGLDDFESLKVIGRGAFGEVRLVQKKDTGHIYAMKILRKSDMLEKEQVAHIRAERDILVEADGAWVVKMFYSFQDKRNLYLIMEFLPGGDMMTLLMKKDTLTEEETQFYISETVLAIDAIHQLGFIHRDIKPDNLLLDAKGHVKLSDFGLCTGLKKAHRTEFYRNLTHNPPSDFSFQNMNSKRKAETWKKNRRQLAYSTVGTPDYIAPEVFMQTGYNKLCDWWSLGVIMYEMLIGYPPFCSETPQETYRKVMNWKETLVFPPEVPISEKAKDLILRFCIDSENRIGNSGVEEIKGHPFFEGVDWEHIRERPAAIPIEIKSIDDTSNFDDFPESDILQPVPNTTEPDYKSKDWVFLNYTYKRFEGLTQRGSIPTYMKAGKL
UniProt Q7Z422: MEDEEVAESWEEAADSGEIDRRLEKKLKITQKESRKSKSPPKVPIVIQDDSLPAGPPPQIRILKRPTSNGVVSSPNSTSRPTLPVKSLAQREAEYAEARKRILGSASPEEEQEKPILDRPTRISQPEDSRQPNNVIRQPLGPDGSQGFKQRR
UniProt P37802: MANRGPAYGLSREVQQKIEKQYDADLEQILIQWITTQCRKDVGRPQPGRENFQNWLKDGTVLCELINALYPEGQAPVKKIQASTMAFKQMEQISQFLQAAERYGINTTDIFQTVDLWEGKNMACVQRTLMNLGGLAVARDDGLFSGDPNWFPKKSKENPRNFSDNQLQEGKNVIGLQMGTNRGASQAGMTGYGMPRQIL
UniProt Q7Z7C8, whole entry, looked up: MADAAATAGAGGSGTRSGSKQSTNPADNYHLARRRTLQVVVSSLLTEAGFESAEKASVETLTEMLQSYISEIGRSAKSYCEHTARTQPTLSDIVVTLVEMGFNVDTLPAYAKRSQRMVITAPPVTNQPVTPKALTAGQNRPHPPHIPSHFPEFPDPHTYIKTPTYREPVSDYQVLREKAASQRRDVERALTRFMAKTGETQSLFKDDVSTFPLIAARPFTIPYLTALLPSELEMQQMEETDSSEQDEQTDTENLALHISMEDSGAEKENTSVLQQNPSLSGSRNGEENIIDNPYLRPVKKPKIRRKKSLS
UniProt Q6P1N9: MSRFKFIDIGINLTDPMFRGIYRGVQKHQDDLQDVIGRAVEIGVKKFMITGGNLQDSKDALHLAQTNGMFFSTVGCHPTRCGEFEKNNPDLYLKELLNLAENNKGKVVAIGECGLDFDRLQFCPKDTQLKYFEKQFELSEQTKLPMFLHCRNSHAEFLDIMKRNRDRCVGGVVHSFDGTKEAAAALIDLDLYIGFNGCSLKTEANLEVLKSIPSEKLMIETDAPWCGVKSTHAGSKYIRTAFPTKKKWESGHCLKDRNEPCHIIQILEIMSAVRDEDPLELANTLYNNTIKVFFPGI
UniProt P61956, whole entry, looked up: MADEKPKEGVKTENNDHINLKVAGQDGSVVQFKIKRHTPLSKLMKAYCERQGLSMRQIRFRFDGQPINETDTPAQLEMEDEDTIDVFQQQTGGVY
UniProt P26639: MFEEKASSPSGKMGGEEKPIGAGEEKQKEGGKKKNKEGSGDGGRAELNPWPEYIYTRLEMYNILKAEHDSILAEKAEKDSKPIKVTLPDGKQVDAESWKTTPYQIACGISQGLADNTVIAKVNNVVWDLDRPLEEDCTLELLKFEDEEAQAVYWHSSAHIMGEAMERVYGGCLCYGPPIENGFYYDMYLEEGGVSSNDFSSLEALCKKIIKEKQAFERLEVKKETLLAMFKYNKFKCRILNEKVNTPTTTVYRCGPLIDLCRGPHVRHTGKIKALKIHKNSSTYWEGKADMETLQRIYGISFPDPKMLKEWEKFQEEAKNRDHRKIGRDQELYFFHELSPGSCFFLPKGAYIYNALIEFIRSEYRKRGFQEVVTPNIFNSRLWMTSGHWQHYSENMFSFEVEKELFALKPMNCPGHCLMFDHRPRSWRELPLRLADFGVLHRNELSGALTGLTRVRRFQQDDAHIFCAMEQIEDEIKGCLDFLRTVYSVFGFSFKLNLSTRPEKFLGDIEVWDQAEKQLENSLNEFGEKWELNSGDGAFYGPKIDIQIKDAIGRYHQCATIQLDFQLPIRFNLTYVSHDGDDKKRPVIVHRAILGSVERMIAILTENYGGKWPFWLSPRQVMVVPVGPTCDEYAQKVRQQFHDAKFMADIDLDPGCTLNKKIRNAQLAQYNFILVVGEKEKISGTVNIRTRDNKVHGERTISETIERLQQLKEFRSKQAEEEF
UniProt Q16563: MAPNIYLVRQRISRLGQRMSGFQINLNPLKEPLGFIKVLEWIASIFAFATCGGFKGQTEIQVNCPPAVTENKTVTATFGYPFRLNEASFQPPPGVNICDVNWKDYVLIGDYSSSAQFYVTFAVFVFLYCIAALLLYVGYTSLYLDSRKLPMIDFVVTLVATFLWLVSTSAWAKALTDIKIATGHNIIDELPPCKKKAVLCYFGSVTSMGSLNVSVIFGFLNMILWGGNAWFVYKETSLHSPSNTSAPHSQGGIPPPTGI
UniProt Q4KMP7: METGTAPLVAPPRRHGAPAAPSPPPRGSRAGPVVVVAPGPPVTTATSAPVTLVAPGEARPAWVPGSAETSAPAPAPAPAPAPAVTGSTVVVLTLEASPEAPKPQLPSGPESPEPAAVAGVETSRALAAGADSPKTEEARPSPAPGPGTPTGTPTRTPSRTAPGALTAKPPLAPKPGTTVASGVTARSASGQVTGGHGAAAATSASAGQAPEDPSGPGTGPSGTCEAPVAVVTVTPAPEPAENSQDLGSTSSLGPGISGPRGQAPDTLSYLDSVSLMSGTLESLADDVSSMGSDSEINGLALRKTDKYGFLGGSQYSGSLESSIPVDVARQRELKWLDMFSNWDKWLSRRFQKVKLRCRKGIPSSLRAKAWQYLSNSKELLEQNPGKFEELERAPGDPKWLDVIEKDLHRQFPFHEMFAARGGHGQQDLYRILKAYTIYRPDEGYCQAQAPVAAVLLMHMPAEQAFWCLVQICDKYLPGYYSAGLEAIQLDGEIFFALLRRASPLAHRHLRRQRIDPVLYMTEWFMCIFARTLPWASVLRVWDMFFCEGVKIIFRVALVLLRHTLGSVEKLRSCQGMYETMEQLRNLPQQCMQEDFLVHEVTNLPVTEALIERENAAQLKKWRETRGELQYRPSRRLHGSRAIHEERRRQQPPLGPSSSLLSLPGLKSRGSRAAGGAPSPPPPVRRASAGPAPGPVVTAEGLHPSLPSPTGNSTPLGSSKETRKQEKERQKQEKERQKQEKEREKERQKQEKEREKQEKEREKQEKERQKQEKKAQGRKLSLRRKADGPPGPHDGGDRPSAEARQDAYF
UniProt Q9C0B7: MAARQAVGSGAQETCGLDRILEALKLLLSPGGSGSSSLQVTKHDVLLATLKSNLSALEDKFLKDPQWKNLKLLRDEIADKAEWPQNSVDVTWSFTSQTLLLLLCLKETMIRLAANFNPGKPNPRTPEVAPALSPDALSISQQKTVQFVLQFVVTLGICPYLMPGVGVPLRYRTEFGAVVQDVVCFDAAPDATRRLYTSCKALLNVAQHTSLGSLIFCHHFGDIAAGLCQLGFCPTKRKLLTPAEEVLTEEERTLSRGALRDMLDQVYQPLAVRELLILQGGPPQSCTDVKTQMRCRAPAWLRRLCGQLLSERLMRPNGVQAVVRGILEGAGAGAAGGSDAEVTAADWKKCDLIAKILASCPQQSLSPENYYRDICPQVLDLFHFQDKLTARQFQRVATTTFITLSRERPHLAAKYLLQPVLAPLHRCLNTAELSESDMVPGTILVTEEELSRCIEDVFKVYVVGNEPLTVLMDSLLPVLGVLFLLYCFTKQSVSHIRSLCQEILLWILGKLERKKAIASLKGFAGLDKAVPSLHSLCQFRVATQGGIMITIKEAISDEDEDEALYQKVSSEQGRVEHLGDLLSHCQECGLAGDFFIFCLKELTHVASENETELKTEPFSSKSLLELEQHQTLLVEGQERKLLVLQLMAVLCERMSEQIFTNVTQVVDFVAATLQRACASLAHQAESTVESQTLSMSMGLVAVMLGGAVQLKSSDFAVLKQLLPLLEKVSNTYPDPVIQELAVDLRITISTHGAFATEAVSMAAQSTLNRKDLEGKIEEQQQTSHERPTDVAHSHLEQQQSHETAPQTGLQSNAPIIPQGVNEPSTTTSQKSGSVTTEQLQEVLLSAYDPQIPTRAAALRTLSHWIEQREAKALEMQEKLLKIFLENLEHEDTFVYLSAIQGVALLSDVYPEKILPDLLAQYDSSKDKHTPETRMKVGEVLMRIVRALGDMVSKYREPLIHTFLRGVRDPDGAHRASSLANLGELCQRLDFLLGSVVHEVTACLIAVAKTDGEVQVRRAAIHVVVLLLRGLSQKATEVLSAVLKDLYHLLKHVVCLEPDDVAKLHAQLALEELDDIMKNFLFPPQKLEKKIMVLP
UniProt O43426, whole entry, looked up: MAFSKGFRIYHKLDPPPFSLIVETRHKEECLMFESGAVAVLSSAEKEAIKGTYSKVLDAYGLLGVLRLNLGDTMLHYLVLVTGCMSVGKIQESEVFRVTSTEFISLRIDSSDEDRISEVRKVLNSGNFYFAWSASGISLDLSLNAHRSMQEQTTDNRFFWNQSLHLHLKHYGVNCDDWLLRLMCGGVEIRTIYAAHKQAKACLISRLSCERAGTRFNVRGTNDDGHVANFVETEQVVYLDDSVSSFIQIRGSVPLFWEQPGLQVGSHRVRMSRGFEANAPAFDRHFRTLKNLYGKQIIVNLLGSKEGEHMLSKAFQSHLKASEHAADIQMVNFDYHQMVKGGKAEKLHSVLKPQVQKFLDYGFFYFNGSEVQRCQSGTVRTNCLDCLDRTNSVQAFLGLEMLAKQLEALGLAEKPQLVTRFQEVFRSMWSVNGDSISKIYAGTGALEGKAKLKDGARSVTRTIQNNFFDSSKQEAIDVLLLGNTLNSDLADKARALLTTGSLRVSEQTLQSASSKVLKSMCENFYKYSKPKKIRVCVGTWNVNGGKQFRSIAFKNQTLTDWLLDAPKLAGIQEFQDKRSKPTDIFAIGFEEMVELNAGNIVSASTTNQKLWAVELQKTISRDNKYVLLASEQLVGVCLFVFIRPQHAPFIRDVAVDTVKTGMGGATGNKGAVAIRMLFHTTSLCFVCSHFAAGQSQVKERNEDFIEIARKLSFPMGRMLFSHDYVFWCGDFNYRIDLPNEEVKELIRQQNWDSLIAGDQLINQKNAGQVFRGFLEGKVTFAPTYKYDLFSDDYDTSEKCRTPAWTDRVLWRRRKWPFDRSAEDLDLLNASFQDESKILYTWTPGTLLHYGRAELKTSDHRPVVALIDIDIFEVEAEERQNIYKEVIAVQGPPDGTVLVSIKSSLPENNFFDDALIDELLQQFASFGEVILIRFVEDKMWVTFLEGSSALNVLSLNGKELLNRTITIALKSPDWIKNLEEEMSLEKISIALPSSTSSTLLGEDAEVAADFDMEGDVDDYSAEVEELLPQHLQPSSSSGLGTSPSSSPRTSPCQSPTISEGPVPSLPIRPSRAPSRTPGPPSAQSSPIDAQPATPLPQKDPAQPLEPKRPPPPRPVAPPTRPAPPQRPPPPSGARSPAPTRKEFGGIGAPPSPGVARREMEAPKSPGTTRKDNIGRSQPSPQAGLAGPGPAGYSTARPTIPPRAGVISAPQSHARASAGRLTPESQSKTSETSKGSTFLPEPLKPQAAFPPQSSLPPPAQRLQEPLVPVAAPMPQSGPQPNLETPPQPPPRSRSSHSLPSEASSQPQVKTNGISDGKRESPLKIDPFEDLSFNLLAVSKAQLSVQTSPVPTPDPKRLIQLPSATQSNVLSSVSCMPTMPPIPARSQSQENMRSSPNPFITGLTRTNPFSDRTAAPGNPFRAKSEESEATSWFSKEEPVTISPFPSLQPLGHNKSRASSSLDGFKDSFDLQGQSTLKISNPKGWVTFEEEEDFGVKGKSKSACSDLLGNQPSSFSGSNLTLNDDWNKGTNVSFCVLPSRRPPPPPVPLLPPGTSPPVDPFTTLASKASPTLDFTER

Experiments:
Test in all cases: log2 fold change, soluble protein after heating vs DMSO (PISA); higher = thermal stabilisation; K562 cells, 10 uM, 30 min; active = over 0.2 and 3.5 SD of the protein, either way, in both replicates (recomputed)
[1] = compound: CC1=C(C=C(C=C1)NC(=O)C2=CC(=CC=C2)C(C)(C)C#N)NC3=CC4=C(C=C3)N=CN(C4=O)C
Procedure, shortened: (§1)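 Aliquots of K562 cells (2×10^6 cells/mL) treated with 10 μM compound for 30 min were heated for 3 min over 48°C-58°C. After pooling and extraction in PBS with 0.5% NP-40 at 4°C, soluble protein from a 21,000xg, 90 min spin was quantified by TMTpro 16plex LC-MS/MS with channel sums equalised. Thermal stability is expressed against control samples, from duplicates, as a log2 fold change.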

[2] = compound: CC1=C(C=C(C=C1)NC(=O)C2=CC(=CC=C2)N(C)C)NC(=O)C3=CC=C(C=C3)O
Procedure, shortened: as §1

[3] = compound: CC1=CC=C(C=C1)SC2=C3C=C(SC3=CN=C2)C(=O)N
Procedure, shortened: as §1

[4] = compound: CC1=NC(=CC=C1)C2=C(N=C(N2)C(C)(C)C)C3=CC4=NC=CN=C4C=C3
Procedure, shortened: as §1

Nexturastat A = compound: CCCCN(Cc1ccc(C(=O)NO)cc1)C(=O)Nc1ccccc1 [Nexturastat A]
Procedure, shortened: as §1

vemurafenib = compound: CCCS(=O)(=O)Nc1ccc(F)c(C(=O)c2c[nH]c3ncc(-c4ccc(Cl)cc4)cc23)c1F [vemurafenib]
Procedure, shortened: as §1

[5] = compound: CCCS(=O)(=O)Nc1ccc(F)c(C(=O)c2c[nH]c3ncc(Cl)cc23)c1F
Procedure, shortened: as §1

[6] = compound: CCCc1cc(C)[nH]c(=O)c1CNC(=O)c1cc(-c2ccnc(N3CCN(C)CC3)c2)cc2c1cnn2C(C)C
Procedure, shortened: as §1

givinostat = compound: CCN(CC)Cc1ccc2cc(COC(=O)Nc3ccc(C(=O)NO)cc3)ccc2c1 [givinostat]
Procedure, shortened: as §1

barasertib = compound: CCN(CCCOc1ccc2c(Nc3cc(CC(=O)Nc4cccc(F)c4)[nH]n3)ncnc2c1)CCOP(=O)(O)O [barasertib]
Procedure, shortened: as §1

Measured: log2 fold change

STX16 isoform 2 (UniProt O14662)
inactive: [1] -0.071 | [2] -0.021 | [3] 0.081 | [4] 0.05 | Nexturastat A 0.139 | vemurafenib 0.034 | [5] 0.024 | [6] 0.122 | givinostat -0.001 | barasertib 0.005

TAPT1 (UniProt Q6NXT6)
inactive: [1] -0.051 | [2] -0.015 | [3] -0.017 | [4] -0.033 | Nexturastat A -0.033 | vemurafenib -0.017 | [5] 0.012 | [6] -0.036 | givinostat 0.017 | barasertib 0

TACC3 (UniProt Q9Y6A5)
inactive: [1] 0.005 | [2] -0.021 | [3] 0.016 | [4] -0.006 | Nexturastat A -0.01 | vemurafenib 0.004 | [5] 0.011 | [6] -0.072 | givinostat -0.052 | barasertib -0.005

STX12 (UniProt Q86Y82)
inactive: [1] -0.001 | [2] 0.023 | [3] 0.038 | [4] 0.025 | Nexturastat A -0.015 | vemurafenib -0.003 | [5] -0.008 | [6] 0.015 | givinostat -0.041 | barasertib 0.004

2 entries picked at random from the list so far:
TACC3 (UniProt Q9Y6A5)
inactive: [1] 0.005 | [2] -0.021 | [3] 0.016 | [4] -0.006 | Nexturastat A -0.01 | vemurafenib 0.004 | [5] 0.011 | [6] -0.072 | givinostat -0.052 | barasertib -0.005

STX16 isoform 2 (UniProt O14662)
inactive: [1] -0.071 | [2] -0.021 | [3] 0.081 | [4] 0.05 | Nexturastat A 0.139 | vemurafenib 0.034 | [5] 0.024 | [6] 0.122 | givinostat -0.001 | barasertib 0.005

Later entries

STK38L (UniProt Q9Y2H1)
inactive: [1] -0.044 | [2] 0.165 | [4] 0.056 | Nexturastat A -0.074 | vemurafenib -0.038 | [6] 0.079 | givinostat -0.016 | barasertib 0.064

SZRD1 (UniProt Q7Z422)
inactive: [1] 0 | [2] 0.017 | [3] -0.011 | [4] 0.145 | Nexturastat A -0.107 | vemurafenib -0.019 | [5] 0.009 | [6] -0.111 | givinostat -0.017 | barasertib 0.02

TAGLN2 isoform 2 (UniProt P37802)
inactive: [1] 0.012 | [2] -0.02 | [3] 0.033 | [4] 0.057 | Nexturastat A -0.033 | vemurafenib 0.048 | [5] 0.048 | [6] 0.025 | givinostat -0.01 | barasertib 0.056

SUDS3 (UniProt Q9H7L9)
inactive: [1] 0.038 | [2] -0.191 | [4] -0.125 | Nexturastat A -0.048 | vemurafenib -0.132 | [6] 0.042 | givinostat -0.137 | barasertib 0.069

STRIP2 (UniProt Q9ULQ0)
inactive: [1] 0.096 | [2] 0.008 | [3] -0.054 | Nexturastat A -0.082 | vemurafenib -0.037 | [5] 0.003 | [6] -0.026 | givinostat 0.072 | barasertib 0.09

STX4 (UniProt Q12846)
inactive: [1] -0.003 | [2] -0.071 | [3] 0.009 | [4] 0.024 | Nexturastat A -0.033 | vemurafenib 0.017 | [5] 0.012 | [6] 0 | givinostat 0.03 | barasertib 0.026

SYVN1 (UniProt Q86TM6)
inactive: [1] 0.001 | [2] 0.021 | [3] 0.016 | [4] 0.047 | Nexturastat A -0.039 | vemurafenib -0.008 | [5] 0.057 | [6] -0.064 | givinostat 0 | barasertib -0.009

TAF8 isoform 2 (UniProt Q7Z7C8)
inactive: [1] -0.113 | [2] 0.027 | [3] 0.023 | [4] -0.011 | Nexturastat A -0.021 | vemurafenib 0.056 | [5] -0.131 | [6] 0.048 | givinostat 0.001 | barasertib 0.01

TATDN1 (UniProt Q6P1N9)
inactive: [1] -0.038 | [2] 0.002 | [3] -0.001 | [4] -0.006 | Nexturastat A 0.079 | vemurafenib -0.045 | [5] -0.026 | [6] -0.002 | givinostat -0.147 | barasertib -0.004

SURF2 (UniProt Q15527)
inactive: [1] 0.022 | [2] -0.007 | [3] 0.035 | [4] -0.027 | Nexturastat A 0.033 | vemurafenib -0.037 | [5] -0.002 | [6] -0.029 | givinostat 0.013 | barasertib 0.035

TAF6L (UniProt Q9Y6J9)
inactive: [1] -0.042 | [2] 0.114 | [3] -0.055 | [5] -0.059 | [6] 0.091 | givinostat 0.075

TANK (UniProt Q92844)
inactive: [1] -0.076 | [2] 0.059 | [3] 0.007 | [4] 0.028 | Nexturastat A -0.047 | vemurafenib -0.031 | [5] -0.018 | [6] 0.065 | givinostat 0.013 | barasertib 0.089

SUMO2 (UniProt P61956)
inactive: [1] -0.133 | [2] 0.1 | [3] -0.135 | [4] -0.081 | vemurafenib -0.084 | [5] -0.229 | [6] -0.019 | givinostat -0.019 | barasertib -0.045

TARS1 (UniProt P26639)
inactive: [1] 0.04 | [2] -0.046 | [3] 0.039 | [4] 0.008 | Nexturastat A -0.035 | vemurafenib 0.018 | [5] 0.062 | [6] 0.022 | givinostat -0.019 | barasertib 0.01

SYPL1 (UniProt Q16563)
inactive: [1] -0.001 | [2] 0.001 | [3] -0.021 | [4] -0.022 | Nexturastat A 0 | vemurafenib 0.041 | [5] 0.004 | [6] -0.137 | givinostat -0.024 | barasertib -0.042

TAF13 (UniProt Q15543)
inactive: [1] 0.058 | [2] -0.023 | Nexturastat A -0.011 | vemurafenib 0.093 | [6] 0.027

SUCLG1 (UniProt P53597)
inactive: [1] -0.02 | [2] -0.008 | [3] -0.001 | [4] 0.025 | Nexturastat A -0.032 | vemurafenib 0.009 | [5] 0 | [6] -0.006 | givinostat -0.102 | barasertib 0.019

TBC1D10B (UniProt Q4KMP7)
inactive: [1] -0.019 | [2] 0.015 | [3] 0.025 | [4] 0 | Nexturastat A -0.051 | vemurafenib 0.004 | [5] 0.048 | [6] 0.014 | givinostat 0.018 | barasertib 0.01

STX6 (UniProt O43752)
inactive: [1] -0.009 | [2] 0.034 | [3] 0.01 | [4] -0.172 | Nexturastat A 0.036 | vemurafenib -0.038 | [5] -0.014 | [6] -0.027 | givinostat 0.002 | barasertib 0.06

TAF11 (UniProt Q15544)
inactive: [1] -0.104 | [2] 0.046 | [3] 0 | [5] -0.029 | [6] 0.067 | givinostat 0.039 | barasertib -0.041

TANGO6 (UniProt Q9C0B7)
inactive: [1] 0.069 | [2] -0.006 | [3] 0.039 | [4] 0.031 | Nexturastat A -0.051 | [5] 0.068 | [6] -0.052 | givinostat 0.131 | barasertib 0.048

SYNE1 (UniProt Q8NF91)
active: Nexturastat A 0.612
inactive: [1] -0.126 | [2] -0.051 | [4] -0.17 | vemurafenib -0.045 | [6] -0.044 | givinostat 0.199 | barasertib 0.047

SYMPK (UniProt Q92797)
inactive: [1] 0.042 | [2] -0.004 | [3] 0.05 | [4] 0.005 | Nexturastat A -0.103 | vemurafenib 0.119 | [5] 0.212 | [6] 0.051 | givinostat 0.145 | barasertib 0.042

SYNCRIP isoform 3 (UniProt O60506)
inactive: [1] 0.132 | [2] 0.006 | [3] -0.064 | [4] -0.106 | Nexturastat A 0.127 | vemurafenib -0.055 | [5] -0.101 | [6] 0.027 | givinostat -0.03 | barasertib -0.048

SYNJ1 (UniProt O43426)
inactive: [1] -0.142 | [2] -0.034 | [3] -0.011 | [4] -0.057 | Nexturastat A 0.096 | vemurafenib 0.059 | [5] -0.035 | [6] -0.145 | givinostat 0.073 | barasertib -0.02

SYNE2 isoform 2 (UniProt Q8WXH0)
inactive: [1] -0.084 | [2] 0.014 | [3] 0.064 | [4] -0.131 | vemurafenib -0.04 | [5] 0 | [6] -0.171 | givinostat 0.43 | barasertib 0.079

SYTL4 (UniProt Q96C24)
inactive: [1] -0.078 | [3] 0.038 | Nexturastat A -0.049 | [5] -0.034 | [6] 0.162 | givinostat 0.101 | barasertib 0.045
